Earlier results in patent US20130274246A1, “Therapeutic Treatment for Metabolic Syndrome, Type 2 Diabetes, Obesity, or Prediabetes” (priority 2010, published 2013).
For at least one compound, name, drawing or mass did not settle the structure.

Test system: obese, diabetic mice (ob/ob strain)
Settings: bromocriptine 5-<10 mg/kg dose; cited from earlier work

CC(C)C[C@H]1C(=O)N2CCC[C@H]2[C@]2(O)O[C@](NC(=O)[C@@H]3C=C4c5cccc6[nH]c(Br)c(c56)C[C@H]4N(C)C3)(C(C)C)C(=O)N12 [bromocriptine]
no effect: blood glucose | body weight | feeding
